In patent US20120034651A1 one finds binding data, which are given here for one substance.

Protein sequences, listed by entry. Tags and fused reporters are not part of them.
UniProt P31751: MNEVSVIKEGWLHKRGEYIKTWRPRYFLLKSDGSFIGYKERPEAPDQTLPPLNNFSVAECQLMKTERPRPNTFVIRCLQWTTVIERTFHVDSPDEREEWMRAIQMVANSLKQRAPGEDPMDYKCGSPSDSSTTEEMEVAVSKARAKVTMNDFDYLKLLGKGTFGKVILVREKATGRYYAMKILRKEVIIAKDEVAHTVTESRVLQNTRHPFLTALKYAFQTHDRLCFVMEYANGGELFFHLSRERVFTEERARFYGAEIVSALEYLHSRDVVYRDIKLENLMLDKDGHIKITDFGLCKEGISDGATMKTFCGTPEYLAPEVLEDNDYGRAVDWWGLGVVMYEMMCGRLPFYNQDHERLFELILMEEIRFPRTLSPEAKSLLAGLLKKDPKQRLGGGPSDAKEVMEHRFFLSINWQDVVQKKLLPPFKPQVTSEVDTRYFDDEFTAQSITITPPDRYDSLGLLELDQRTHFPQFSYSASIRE
UniProt P56279: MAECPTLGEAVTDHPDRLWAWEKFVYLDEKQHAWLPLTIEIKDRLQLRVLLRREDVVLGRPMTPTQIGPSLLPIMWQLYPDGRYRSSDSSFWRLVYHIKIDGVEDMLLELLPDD

Results are given in words; binding and its absence hold for the method and conditions named. Some binding calls cover weakened binding; strength is not graded here.

The assay addresses human Akt2 (Akt2/PAS2-1) (human) (UniProt P31751). Description: yeast two-hybrid, beta-Gal lifting assay (beta-Gal positive at 3h).

For “wild-type TCL1 (human, full length) (from UniProt P56279 1-114)”, the binding entry is reported as “binds”.
